{"sequences": {"note": "Chains of the proteins cited; added tags and fusions are not shown. Lines headed by an entry give the natural chain unless they say otherwise; changes in a name come on top.", "UniProt P51450": "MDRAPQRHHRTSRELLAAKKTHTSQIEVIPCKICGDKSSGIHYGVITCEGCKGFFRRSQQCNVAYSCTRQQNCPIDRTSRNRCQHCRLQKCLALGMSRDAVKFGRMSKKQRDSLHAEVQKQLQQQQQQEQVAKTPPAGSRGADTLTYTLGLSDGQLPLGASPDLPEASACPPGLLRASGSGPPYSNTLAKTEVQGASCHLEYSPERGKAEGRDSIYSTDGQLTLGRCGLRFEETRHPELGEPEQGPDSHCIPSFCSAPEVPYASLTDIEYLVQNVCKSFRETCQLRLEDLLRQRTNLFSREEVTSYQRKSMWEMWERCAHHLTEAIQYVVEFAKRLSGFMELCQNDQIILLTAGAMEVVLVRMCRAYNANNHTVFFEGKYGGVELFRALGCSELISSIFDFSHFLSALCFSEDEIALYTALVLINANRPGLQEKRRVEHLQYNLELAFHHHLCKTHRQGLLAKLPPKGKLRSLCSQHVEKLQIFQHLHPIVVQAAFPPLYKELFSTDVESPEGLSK"}, "source": "PubChem BioAssay AID2551", "about": "(National Center for Advancing Translational Sciences (NCATS), 2010)", "note": "The whole screen tested about 310,000 compounds, of which about 17,000 (5.5%) were called active. The shares of active, inactive and inconclusive entries below differ from those in the screen. Calls come from the whole dose curve; as a rule, active = well fitted inhibition curve with a large enough effect; inconclusive = small, poorly fitted or top-dose-only effect, or effect the other way; inactive = no such curve, though single readings can be large or run the other way. Where the call is inconclusive, the potency comes from a doubtful curve fit.", "data": [{"molecular_target": "Nuclear receptor ROR-gamma (Mus musculus) (UniProt P51450)", "assay": "qHTS for inhibitors of ROR gamma transcriptional activity; note: nearly all actives have a fitted effect of over 60% in size; note: potency is the fitted concentration of half-maximal effect; for activity change, negative = inhibition: % is set by controls: 0 for no effect and ±100 for the full control effect", "settings": "Drosophila S2 Gal4-RORgamma UAS-luciferase reporter, 20 h; activity change, negative = inhibition: at 53.6 µM (top of the series)", "procedure,_shortened": "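Drosophila Schneider cells stably carrying a metallothionein-driven Gal4 DBD–ROR gamma fusion and a UAS-Photinus luciferase reporter were exposed to compound for 1 hr, then induced with copper sulfate (700 uM final) for 20 hr at ambient temperature before luminescence reading.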", "values": [{"compound": "O=C(NC1CCCCC1)C(c1ccncc1)N(C(=O)c1csnn1)c1cccc(F)c1", "note": "(centres undefined)", "activity change, negative = inhibition": "inactive: 0.0067%"}, {"compound": "CC(C)(C)C1CCc2c(C(=O)NNC(=O)/C=C/C(=O)O)csc2C1", "note": "(centres undefined)", "Potency": "inconclusive: 28.2 µM [inhibitor, single point]"}, {"compound": "Cc1cc(/C=N/n2cnnc2)c(C)n1-c1cc(Cl)ccc1Cl", "Potency": "inconclusive: 5.62 µM [inhibitor, single point]"}, {"compound": "COCCNC(=S)N(CCc1c(C)[nH]c2ccc(OC)cc12)Cc1ccco1", "activity change, negative = inhibition": "inactive: 14.1%"}, {"compound": "NC(=S)N/N=C/c1ccccc1OC(=O)/C=C/c1ccccc1", "Potency": "active: 3.55 µM"}, {"compound": "C=CCn1c(SCc2ccccc2Cl)nnc1-c1sc2nc(C)cc(C)c2c1N", "activity change, negative = inhibition": "inactive: -12.8%"}, {"compound": "CC(=O)c1cccc(NC(=S)NC2CCCCCCC2)c1", "Potency": "active: 3.16 µM"}, {"compound": "Cn1c(=O)c(=O)n(C)c2cc([N+](=O)[O-])c([N+](=O)[O-])cc21", "Potency": "active: 7.94 µM"}, {"compound": "COCCOC(=O)C1=C(C)N(Cc2ccccc2)C(=O)NC1c1cccc(OC)c1OC", "note": "(centres undefined)", "Potency": "inconclusive: 35.5 µM [inhibitor, single point]"}, {"compound": "COc1cc(/C=N/NC(=S)NC2CC3CCC2C3)ccc1O", "note": "(centres undefined)", "Potency": "active: 2 µM"}, {"compound": "O=C(NNC(=S)NC(=O)c1ccccc1)c1cccc([N+](=O)[O-])c1", "Potency": "active: 7.94 µM"}, {"compound": "COc1ccc(OC)c(Nc2nc(NCCCN(C)C)nc(N)c2[N+](=O)[O-])c1", "Potency": "active: 10 µM"}, {"compound": "CC(=O)OCC1=C(C(=O)O)N2C(=O)C(NC(=O)c3ccc(COc4cccc(Cl)c4Cl)o3)C2SC1", "note": "(centres undefined)", "activity change, negative = inhibition": "inactive: 15.1%"}, {"compound": "S=c1[nH]nc(-c2cccs2)n1/N=C/c1c(Cl)cccc1Cl", "Potency": "active: 11.2 µM"}, {"compound": "O=C(/C=C/c1ccc([N+](=O)[O-])cc1)c1cccnc1", "Potency": "inconclusive: 20 µM [inhibitor, single point]"}, {"compound": "CC(=NCc1ccco1)c1c(C)[nH]n(-c2nc3ccccc3s2)c1=O", "Potency": "inconclusive: 2 µM [inhibitor, partial curve, poor fit]"}, {"compound": "Cc1[nH]nc2c1C(=O)CC(C)(C)C2", "Potency": "inconclusive: 0.126 µM [activator, partial curve]"}, {"compound": "Cc1ccc(C(=O)N2CCCC(N3CCN(c4cccc(C(F)(F)F)c4)CC3)C2)s1", "note": "(centres undefined)", "Potency": "inconclusive: 31.6 µM [activator, single point]"}, {"compound": "Cc1ccc(C)c2[nH]c(=O)c(CCNC(=O)c3ccc(S(=O)(=O)N(C)C)cc3)cc12", "Potency": "inconclusive: 15.8 µM [activator, partial curve]"}, {"compound": "O=C(Nc1ccc2c(c1)OCCO2)C1CCN(S(=O)(=O)c2cccs2)CC1", "activity change, negative = inhibition": "inactive: -10.7%"}, {"compound": "CCOC(=O)CN1C(=O)c2ccccc2C1=O", "activity change, negative = inhibition": "inactive: 18.3%"}, {"compound": "O=C1c2ccccc2C2=Nc3ccccc3SC(c3ccccc3F)C12", "note": "(centres undefined)", "Potency": "inconclusive: 7.08 µM [activator, full curve]"}, {"compound": "O=C(/C=C/c1cccc([N+](=O)[O-])c1)c1cccs1", "Potency": "inconclusive: 35.5 µM [inhibitor, single point]"}, {"compound": "CCCCCCNc1nc(-c2ccc(OC)cc2)c(CCC(=O)O)s1", "Potency": "inconclusive: 25.1 µM [inhibitor, single point]"}, {"compound": "Cc1ccc(/C=C2\\C(=O)Nc3ccccc32)o1", "activity change, negative = inhibition": "inactive: 22.1%"}, {"compound": "CC(=O)N[C@@H](C)c1nc2ccccc2n1CCCN1CCN(c2nc(-c3ccc(C)cc3)cs2)CC1", "Potency": "inconclusive: 35.5 µM [inhibitor, single point]"}, {"compound": "O=C1CCCc2nc(N3CCN(Cc4ccccc4)CC3)ncc21", "Potency": "inconclusive: 15.8 µM [activator, single point]"}, {"compound": "S=c1[nH]nc(-c2cccnc2)n1/N=C/c1ccc(Br)s1", "Potency": "inconclusive: 35.5 µM [inhibitor, single point]"}, {"compound": "CC1=CC(C)(C)NC(=S)N1NC(=O)c1ccccc1Cl", "Potency": "inconclusive: 35.5 µM [inhibitor, single point]"}, {"compound": "COC(=O)c1cc(OC)c(OC)cc1NC(=O)Nc1ccccc1OC", "activity change, negative = inhibition": "inactive: -1.25%"}, {"compound": "COc1ccc(N(CC(=O)Nc2ccccc2OC)S(=O)(=O)c2ccccc2)cc1Cl", "Potency": "inconclusive: 35.5 µM [activator, single point]"}, {"compound": "CC(=O)OCON[N+]([O-])=NC1CCCCC1", "activity change, negative = inhibition": "inactive: 14.3%"}, {"compound": "C#C[C@]1(OC(C)=O)CC[C@H]2[C@@H]3CCC4=CC(=O)CC[C@@H]4[C@H]3CC[C@@]21C", "Potency": "inconclusive: 7.94 µM [inhibitor, full curve, poor fit]"}, {"compound": "CC(=O)c1c(COC(=O)c2cccc(C)c2)nc2ccccc2[n+]1[O-]", "activity change, negative = inhibition": "inactive: 14.8%"}, {"compound": "NC(=S)c1cnn2c(-c3cccc(C(F)(F)F)c3)ccnc12", "Potency": "active: 3.98 µM"}, {"compound": "O=C(O)c1cccc(Nc2cc(Cl)c3nonc3c2[N+](=O)[O-])c1", "Potency": "inconclusive: 35.5 µM [inhibitor, single point]"}, {"compound": "COC(=O)c1c(C)oc2ccc(N(C(=O)c3ccncc3)S(=O)(=O)c3ccc4ccccc4c3)cc12", "Potency": "inconclusive: 25.1 µM [inhibitor, single point]"}, {"compound": "O=C(/C(=C(\\O)c1ccccc1)c1ncc[nH]1)c1ccccc1", "Potency": "active: 12.6 µM"}, {"compound": "Cc1ccc(C(=O)CC2C(=O)N(c3ccccc3)C(=S)N2c2ccccc2)cc1", "note": "(centres undefined)", "Potency": "inconclusive: 20 µM [activator, single point]"}, {"compound": "O=C(C1=C[C@@H](C2CCCCC2)C[C@@H](OCc2ccc(CO)cc2)O1)N1CCN(Cc2ccccc2)CC1", "Potency": "inconclusive: 8.91 µM [inhibitor, single point]"}, {"compound": "Cc1ccc(-c2cnc(NC(=O)CCC(=O)N(C)Cc3ccccc3)n2C)cc1", "Potency": "active: 2.24 µM"}, {"compound": "Fc1ccccc1NC(=S)NN(Cc1ccccc1)c1ccccc1", "Potency": "active: 4.47 µM"}, {"compound": "CNCCCCOc1ccccc1Cc1ccccc1", "Potency": "inconclusive: 35.5 µM [inhibitor, single point]"}, {"compound": "Cc1ccn(-c2ccc(NC(=O)c3cccs3)cc2)n1", "activity change, negative = inhibition": "inactive: -27.9%"}, {"compound": "Cc1ccc(Cc2cnc(NC(=O)C3CCCO3)s2)cc1", "note": "(centres undefined)", "Potency": "inconclusive: 35.5 µM [inhibitor, single point]"}, {"compound": "CC(C)CCn1c(N2CCCC2)nc2c1c(=O)[nH]c(=O)n2C", "Potency": "inconclusive: 35.5 µM [activator, single point]"}, {"compound": "COc1ccc(NC(=O)NCc2cccnc2)cc1", "activity change, negative = inhibition": "inactive: 15.6%"}, {"compound": "CO/N=C(/C)CCC(=O)OC[C@@H]1O[C@H](C#Cc2ccccc2)C=C[C@@H]1Oc1ccc(C)cc1", "activity change, negative = inhibition": "inactive: -7.95% [at 10 µM]"}, {"compound": "NC(=O)c1ccsc1NC(=O)COC(=O)c1ccccc1NCc1ccco1", "Potency": "inconclusive: 12.6 µM [activator, single point]"}, {"compound": "CSc1ccccc1NC(=S)NCc1ccc(Cl)cc1", "Potency": "active: 7.08 µM"}, {"compound": "COc1ccc(N2CCn3c2nc2c3c(=O)n(CCCc3ccccc3)c(=O)n2C)c(OC)c1", "Potency": "inconclusive: 12.6 µM [activator, partial curve]"}, {"compound": "Cc1ccc(-c2csc(NC(=O)C[n+]3cc(-c4ccc(C)cc4)n4c3CCC4)n2)cc1", "Potency": "inconclusive: 11.2 µM [activator, partial curve]"}, {"compound": "COc1ccccc1CNc1nc2ccccc2n1CCN1CCCCC1", "Potency": "inconclusive: 11.2 µM [inhibitor, partial curve, poor fit]"}, {"compound": "COc1ccc(-c2noc(CCCC(=O)NCCc3ccccc3)n2)cc1OC", "activity change, negative = inhibition": "inactive: -40.1%"}, {"compound": "COc1ccc(CNS(=O)(=O)c2ccc3c(c2)CCN3C(=O)C2CCC2)cc1", "activity change, negative = inhibition": "inactive: 15.1%"}, {"compound": "COc1ccc(-c2cc(C)nc3c(-c4ccccc4)cnn23)cc1", "Potency": "inconclusive: 11.2 µM [inhibitor, single point]"}, {"compound": "CCOC(=O)N1CCN(C(=O)c2ccc(NS(=O)(=O)c3ccc(F)cc3)cc2)CC1", "Potency": "inconclusive: 11.2 µM [activator, partial curve]"}, {"compound": "Cc1cccc(C(=O)Nc2cc(OCc3cccc(F)c3)c(Cl)cc2Cl)c1", "Potency": "inconclusive: 5.62 µM [activator, full curve, poor fit]"}, {"compound": "CCOc1ccc(NC(=O)CCn2cccc2)cc1", "Potency": "inconclusive: 17.8 µM [activator, single point]"}, {"compound": "CCCNC(=S)Nc1ccccc1", "Potency": "active: 10 µM"}, {"compound": "CCc1nnc(N/N=C/c2c(F)cccc2Cl)n1N", "Potency": "inconclusive: 15.8 µM [inhibitor, single point]"}, {"compound": "COc1cc(NC(=O)CSCC(=O)Nc2cccc(C(F)(F)F)c2)c(Cl)cc1Cl", "Potency": "inconclusive: 22.4 µM [inhibitor, single point]"}, {"compound": "O=C(NC1=NCCS1)c1ccc(Cl)c(S(=O)(=O)N2CCc3ccccc32)c1", "Potency": "inconclusive: 35.5 µM [inhibitor, single point]"}, {"compound": "Cc1ccn2c(NC3CCCC3)c(-c3ccsc3)nc2c1", "Potency": "active: 11.2 µM"}, {"compound": "O=c1ccn(Cc2ccccc2)c(=O)n1Cc1ccccc1", "activity change, negative = inhibition": "inactive: 11.1%"}, {"compound": "COC(=O)[C@@]1(Cc2ccc(OC)cc2)[C@H]2c3cc(C(=O)N(C)C)n(Cc4ccsc4Br)c3C[C@H]2CN1C(=O)c1ccccc1", "activity change, negative = inhibition": "inactive: 30.1%"}, {"compound": "Cc1ccc(N2C(=O)/C(=C\\c3ccco3)SC2=S)cc1", "Potency": "inconclusive: 11.2 µM [inhibitor, partial curve]"}, {"compound": "CSc1nnc2ccc(-c3ccccn3)nn12", "activity change, negative = inhibition": "inactive: -10.1%"}, {"compound": "CN1CCN(C(=O)CCN2C(=O)/C(=C\\c3ccc(Cl)cc3)SC2=S)CC1", "activity change, negative = inhibition": "inactive: -19.9%"}, {"compound": "CCCCC1CCC(c2nc(-c3ccccn3)no2)CC1", "note": "(centres undefined)", "Potency": "inconclusive: 11.2 µM [inhibitor, partial curve]"}, {"compound": "O=C1ON=C(c2ccccc2)/C1=C/c1ccc(-c2ccccc2[N+](=O)[O-])o1", "Potency": "inconclusive: 22.4 µM [inhibitor, single point]"}, {"compound": "Brc1ccc(-c2nnc3n2C2(CCCC2)Cc2ccccc2-3)o1", "Potency": "inconclusive: 11.2 µM [activator, single point]"}, {"compound": "CSc1ccc(CN2CCN(C(=O)c3ccncc3)CC2)cc1", "activity change, negative = inhibition": "inactive: -6.04%"}, {"compound": "N#CC1=C(N)N2C(=C(C#N)C13CCCCC3)SC1CCCCC12O", "note": "(centres undefined)", "Potency": "inconclusive: 11.2 µM [activator, partial curve]"}]}]}
